Test results from the supplement of paper PMC10849652.
The other results are listed elsewhere or left out.

By UniProt entry, the sequences of proteins in these tests, tags left out. Where a name states a change or a piece, a line headed by the entry shows the natural chain unless it says otherwise.
UniProt Q9H3K2: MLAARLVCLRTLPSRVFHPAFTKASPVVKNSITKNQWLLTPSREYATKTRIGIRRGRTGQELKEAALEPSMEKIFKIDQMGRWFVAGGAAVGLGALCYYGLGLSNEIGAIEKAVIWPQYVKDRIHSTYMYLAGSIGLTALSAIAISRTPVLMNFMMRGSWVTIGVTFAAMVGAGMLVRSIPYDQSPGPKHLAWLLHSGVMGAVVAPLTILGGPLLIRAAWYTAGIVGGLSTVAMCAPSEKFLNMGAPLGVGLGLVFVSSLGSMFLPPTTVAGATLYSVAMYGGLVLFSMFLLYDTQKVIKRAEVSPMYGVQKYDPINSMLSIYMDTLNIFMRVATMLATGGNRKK
UniProt Q9BXV9: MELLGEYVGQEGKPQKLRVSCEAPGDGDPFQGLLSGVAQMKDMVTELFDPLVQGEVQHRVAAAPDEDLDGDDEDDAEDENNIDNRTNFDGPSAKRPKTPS
UniProt Q9NPR9: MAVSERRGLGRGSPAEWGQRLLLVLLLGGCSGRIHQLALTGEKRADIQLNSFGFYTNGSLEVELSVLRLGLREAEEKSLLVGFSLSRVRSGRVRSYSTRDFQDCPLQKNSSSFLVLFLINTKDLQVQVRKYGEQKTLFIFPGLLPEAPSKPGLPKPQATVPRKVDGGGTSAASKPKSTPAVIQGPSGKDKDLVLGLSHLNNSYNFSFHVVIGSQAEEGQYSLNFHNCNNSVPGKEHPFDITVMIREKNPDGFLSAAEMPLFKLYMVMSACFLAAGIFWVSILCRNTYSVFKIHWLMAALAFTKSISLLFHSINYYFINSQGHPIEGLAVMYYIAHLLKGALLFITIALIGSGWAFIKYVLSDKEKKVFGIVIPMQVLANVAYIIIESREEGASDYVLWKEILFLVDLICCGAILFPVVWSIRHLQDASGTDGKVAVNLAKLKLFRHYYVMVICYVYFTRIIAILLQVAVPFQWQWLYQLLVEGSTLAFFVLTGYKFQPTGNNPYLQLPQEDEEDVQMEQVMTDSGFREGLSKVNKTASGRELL
UniProt Q14691: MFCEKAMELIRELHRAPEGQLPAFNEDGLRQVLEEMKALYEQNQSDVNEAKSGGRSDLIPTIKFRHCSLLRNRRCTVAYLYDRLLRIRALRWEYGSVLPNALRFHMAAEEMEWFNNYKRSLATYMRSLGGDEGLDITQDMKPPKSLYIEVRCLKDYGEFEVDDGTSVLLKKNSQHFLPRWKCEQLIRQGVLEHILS
UniProt Q9H4A6: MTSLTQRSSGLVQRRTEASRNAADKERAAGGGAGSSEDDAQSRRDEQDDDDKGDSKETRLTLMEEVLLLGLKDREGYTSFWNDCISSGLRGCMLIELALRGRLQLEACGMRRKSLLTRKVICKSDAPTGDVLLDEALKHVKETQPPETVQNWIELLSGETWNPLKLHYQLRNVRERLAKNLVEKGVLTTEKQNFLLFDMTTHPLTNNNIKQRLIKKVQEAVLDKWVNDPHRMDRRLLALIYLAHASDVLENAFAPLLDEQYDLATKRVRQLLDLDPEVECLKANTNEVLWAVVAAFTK
UniProt O60547: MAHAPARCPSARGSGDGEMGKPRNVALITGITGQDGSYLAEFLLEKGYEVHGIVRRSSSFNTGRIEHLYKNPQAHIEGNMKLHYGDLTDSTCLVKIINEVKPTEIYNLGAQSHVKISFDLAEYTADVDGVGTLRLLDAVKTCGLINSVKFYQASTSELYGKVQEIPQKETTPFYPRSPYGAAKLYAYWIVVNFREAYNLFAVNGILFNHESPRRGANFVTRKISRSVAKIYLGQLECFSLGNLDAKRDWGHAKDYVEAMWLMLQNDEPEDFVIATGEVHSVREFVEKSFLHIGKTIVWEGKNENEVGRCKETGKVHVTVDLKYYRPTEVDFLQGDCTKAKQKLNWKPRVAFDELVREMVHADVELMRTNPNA
UniProt P06280: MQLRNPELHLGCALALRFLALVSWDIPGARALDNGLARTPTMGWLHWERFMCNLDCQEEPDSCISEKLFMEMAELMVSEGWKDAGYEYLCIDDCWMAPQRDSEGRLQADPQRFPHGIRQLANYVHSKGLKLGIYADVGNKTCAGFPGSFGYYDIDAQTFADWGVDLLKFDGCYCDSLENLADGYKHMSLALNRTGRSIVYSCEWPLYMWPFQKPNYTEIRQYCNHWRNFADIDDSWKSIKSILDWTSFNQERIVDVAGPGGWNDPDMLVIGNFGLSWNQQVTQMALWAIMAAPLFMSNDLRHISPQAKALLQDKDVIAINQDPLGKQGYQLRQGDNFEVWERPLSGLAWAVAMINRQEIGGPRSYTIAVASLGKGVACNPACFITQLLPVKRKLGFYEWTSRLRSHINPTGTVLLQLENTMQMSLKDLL
UniProt Q49A26: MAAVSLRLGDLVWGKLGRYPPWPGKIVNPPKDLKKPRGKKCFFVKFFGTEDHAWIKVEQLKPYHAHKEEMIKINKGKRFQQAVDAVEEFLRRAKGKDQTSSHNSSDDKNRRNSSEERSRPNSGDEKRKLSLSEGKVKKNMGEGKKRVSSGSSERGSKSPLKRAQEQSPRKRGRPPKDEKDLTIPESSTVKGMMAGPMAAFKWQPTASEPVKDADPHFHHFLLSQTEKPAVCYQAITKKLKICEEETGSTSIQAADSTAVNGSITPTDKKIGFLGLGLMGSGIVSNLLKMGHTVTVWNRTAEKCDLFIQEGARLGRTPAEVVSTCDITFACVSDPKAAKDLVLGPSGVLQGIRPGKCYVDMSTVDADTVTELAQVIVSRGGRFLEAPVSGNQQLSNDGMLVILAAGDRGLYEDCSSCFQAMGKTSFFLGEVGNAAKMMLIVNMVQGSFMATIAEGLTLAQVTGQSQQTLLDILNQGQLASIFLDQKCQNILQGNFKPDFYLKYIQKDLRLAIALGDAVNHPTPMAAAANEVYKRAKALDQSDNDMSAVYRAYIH
UniProt Q9HC38: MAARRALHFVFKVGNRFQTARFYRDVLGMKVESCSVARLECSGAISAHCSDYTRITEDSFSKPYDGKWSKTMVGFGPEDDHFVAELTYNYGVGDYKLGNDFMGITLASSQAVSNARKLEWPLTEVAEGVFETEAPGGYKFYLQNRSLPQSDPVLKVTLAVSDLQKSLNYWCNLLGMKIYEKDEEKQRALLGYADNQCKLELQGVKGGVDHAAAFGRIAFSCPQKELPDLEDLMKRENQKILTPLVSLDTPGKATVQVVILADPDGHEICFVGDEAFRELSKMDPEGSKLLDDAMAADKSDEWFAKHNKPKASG
UniProt Q13227: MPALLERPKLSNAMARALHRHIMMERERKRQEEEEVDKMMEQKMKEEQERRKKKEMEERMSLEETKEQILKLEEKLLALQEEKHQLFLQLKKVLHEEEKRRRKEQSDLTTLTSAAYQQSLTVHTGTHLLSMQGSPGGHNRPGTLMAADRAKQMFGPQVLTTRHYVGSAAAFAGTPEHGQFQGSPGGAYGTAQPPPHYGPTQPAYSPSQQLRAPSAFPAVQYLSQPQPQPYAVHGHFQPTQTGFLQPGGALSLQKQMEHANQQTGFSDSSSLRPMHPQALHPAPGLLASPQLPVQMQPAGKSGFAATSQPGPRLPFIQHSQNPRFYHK
UniProt O60234, whole entry, looked up: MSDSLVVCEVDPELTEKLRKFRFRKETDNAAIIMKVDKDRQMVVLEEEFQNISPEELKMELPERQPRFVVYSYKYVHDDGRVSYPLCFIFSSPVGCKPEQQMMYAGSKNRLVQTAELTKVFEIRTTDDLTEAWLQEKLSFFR
UniProt Q5JWF2, whole entry, looked up: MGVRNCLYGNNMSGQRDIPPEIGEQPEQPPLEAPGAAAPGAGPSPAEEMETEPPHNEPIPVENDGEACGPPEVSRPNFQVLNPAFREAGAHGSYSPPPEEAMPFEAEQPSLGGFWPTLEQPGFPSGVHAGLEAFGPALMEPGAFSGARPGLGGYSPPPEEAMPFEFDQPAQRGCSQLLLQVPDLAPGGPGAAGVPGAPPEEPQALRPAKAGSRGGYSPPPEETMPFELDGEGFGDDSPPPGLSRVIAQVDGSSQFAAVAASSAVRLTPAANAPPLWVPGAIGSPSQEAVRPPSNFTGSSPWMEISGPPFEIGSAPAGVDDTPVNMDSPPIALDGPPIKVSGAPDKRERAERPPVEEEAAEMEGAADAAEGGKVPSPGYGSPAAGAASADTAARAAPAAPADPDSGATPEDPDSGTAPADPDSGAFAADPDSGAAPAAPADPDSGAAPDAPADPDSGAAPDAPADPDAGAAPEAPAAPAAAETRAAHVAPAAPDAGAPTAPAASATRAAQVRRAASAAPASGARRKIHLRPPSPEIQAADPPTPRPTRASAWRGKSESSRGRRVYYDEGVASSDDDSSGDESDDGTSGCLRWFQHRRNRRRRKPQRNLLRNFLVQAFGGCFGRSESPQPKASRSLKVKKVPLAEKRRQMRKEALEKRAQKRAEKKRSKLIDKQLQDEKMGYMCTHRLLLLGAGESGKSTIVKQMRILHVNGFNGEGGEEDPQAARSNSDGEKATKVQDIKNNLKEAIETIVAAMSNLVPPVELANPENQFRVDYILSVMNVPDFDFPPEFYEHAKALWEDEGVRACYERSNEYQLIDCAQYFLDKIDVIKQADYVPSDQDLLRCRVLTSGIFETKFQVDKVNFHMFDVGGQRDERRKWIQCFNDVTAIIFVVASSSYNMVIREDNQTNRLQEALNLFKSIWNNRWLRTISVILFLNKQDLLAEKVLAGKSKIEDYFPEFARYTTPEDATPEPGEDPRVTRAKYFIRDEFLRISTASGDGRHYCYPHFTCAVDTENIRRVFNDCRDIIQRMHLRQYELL
UniProt P16520, whole entry, looked up: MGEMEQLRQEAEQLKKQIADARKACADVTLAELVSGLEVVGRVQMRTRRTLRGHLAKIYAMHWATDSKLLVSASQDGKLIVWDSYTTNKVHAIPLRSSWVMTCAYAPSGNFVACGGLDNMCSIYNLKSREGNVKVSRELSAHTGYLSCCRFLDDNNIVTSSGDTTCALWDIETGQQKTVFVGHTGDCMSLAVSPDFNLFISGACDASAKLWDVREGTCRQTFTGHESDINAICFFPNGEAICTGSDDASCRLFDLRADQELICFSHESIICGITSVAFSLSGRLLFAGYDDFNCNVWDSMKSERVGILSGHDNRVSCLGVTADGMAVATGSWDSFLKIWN
UniProt Q86UL3: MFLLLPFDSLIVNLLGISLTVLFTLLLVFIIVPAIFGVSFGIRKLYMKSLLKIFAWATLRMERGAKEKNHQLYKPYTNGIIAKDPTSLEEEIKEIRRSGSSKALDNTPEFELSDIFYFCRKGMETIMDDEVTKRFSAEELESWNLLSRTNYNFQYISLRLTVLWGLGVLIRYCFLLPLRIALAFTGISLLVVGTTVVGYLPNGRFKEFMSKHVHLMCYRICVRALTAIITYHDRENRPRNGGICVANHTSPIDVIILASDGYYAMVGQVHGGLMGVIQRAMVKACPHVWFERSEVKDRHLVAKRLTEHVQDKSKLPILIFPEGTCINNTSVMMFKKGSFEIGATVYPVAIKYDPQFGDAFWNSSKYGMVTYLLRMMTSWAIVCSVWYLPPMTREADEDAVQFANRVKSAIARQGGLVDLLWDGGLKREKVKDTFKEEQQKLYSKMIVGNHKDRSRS
UniProt Q9Y248: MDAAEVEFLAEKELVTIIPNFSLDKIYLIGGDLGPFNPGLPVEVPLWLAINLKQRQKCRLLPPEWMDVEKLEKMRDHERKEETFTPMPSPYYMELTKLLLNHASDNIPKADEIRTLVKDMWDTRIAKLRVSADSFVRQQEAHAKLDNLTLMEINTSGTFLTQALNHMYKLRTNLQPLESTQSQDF
UniProt O95249: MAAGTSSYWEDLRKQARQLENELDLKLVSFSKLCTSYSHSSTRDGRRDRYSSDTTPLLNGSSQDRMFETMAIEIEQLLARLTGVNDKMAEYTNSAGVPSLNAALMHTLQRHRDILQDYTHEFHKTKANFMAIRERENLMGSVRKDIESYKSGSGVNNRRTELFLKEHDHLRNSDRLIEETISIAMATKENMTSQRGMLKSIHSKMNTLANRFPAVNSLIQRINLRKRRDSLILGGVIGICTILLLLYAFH
UniProt B7ZAQ6: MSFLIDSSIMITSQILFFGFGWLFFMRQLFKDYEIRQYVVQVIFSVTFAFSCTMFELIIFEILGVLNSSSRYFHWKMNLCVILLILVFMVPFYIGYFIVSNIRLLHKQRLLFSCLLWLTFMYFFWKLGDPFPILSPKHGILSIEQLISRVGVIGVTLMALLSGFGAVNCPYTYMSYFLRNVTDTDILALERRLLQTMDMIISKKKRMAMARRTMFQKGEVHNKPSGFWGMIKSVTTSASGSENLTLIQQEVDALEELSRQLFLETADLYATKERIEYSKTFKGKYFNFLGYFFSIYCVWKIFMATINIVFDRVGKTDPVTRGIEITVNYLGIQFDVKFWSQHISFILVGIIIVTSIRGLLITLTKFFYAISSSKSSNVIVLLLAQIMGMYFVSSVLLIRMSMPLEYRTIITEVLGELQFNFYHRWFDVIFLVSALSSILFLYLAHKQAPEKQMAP
UniProt Q9NWU2, whole entry, looked up: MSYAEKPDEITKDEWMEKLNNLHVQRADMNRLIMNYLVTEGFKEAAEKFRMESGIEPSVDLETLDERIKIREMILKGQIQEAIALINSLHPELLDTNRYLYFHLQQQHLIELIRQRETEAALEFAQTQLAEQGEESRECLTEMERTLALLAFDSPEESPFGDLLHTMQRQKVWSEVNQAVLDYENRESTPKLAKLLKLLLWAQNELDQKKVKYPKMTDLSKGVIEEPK

Columns and labels:
Assay in all cases: log2 fold change, soluble protein after heating vs DMSO (PISA); higher = thermal stabilisation; K562 lysate, 10 uM; active = over 0.2 and 3.5 SD of the protein, either way, in both replicates (recomputed)
nilotinib = compound: Cc1cn(-c2cc(NC(=O)c3ccc(C)c(Nc4nccc(-c5cccnc5)n4)c3)cc(C(F)(F)F)c2)cn1 [nilotinib]
Procedure, shortened: (§1)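 A 30 min treatment with 10 μM compound was applied to crude K562 extract at 1 mg/mL protein in PBS pH 7.4 with 1 mM MgCl2. Heating for 3 min spanned 48°C-58°C, after which aliquots were pooled, adjusted to 0.5% NP-40 at 4°C and spun at 21,000xg for 90 min. TMTpro 16plex LC-MS/MS of the supernatant, with channel sums equalised, gave values recorded as log-two fold change in thermal stability against solvent controls, from duplicates.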

[1] = compound: Cc1nc(Nc2n[nH]c3c2CN(C(=O)N[C@H](CN(C)C)c2ccccc2)C3(C)C)c2sccc2n1
Procedure, shortened: as §1

dasatinib = compound: Cc1nc(Nc2ncc(C(=O)Nc3c(C)cccc3Cl)s2)cc(N2CCN(CCO)CC2)n1 [dasatinib]
Procedure, shortened: as §1

[2] = compound: Cc1ncc(-c2ccnc(Nc3ccc(S(C)(=O)=O)cc3)n2)n1C(C)C
Procedure, shortened: as §1

[3] = compound: Cn1cc(-c2ccc3c(c2)CCN3C(=O)Cc2cccc(C(F)(F)F)c2)c2c(N)ncnc21
Procedure, shortened: as §1

quisinostat = compound: Cn1cc(CNCC2CCN(c3ncc(C(=O)NO)cn3)CC2)c2ccccc21 [quisinostat]
Procedure, shortened: as §1

tipifarnib = compound: Cn1cncc1[C@@](N)(c1ccc(Cl)cc1)c1ccc2c(c1)c(-c1cccc(Cl)c1)cc(=O)n2C [tipifarnib]
Procedure, shortened: as §1

[4] = compound: NC(=O)Nc1cc(-c2cccc(F)c2)sc1C(=O)N[C@H]1CCCNC1
Procedure, shortened: as §1

[5] = compound: NC(=O)c1cnc(N[C@@H]2CCCC[C@@H]2N)nc1Nc1cccc(-n2nccn2)c1
Procedure, shortened: as §1

[6] = compound: NC1(c2ccc(-c3nc4ccn5c(=O)[nH]nc5c4cc3-c3ccccc3)cc2)CCC1
Procedure, shortened: as §1

[7] = compound: NCC(=O)Nc1ccc(-n2nc(C(F)(F)F)cc2-c2ccc3c(ccc4ccccc43)c2)cc1
Procedure, shortened: as §1

vorinostat = compound: O=C(CCCCCCC(=O)Nc1ccccc1)NO [vorinostat]
Procedure, shortened: as §1

silmitasertib = compound: O=C(O)c1ccc2c(c1)nc(Nc1cccc(Cl)c1)c1ccncc12 [silmitasertib]
Procedure, shortened: as §1

[8] = compound: O=C1NC(=O)C(c2cnc3ccccn23)=C1c1cn2c3c(cc(F)cc13)CN(C(=O)N1CCCCC1)CC2
Procedure, shortened: as §1

entospletinib = compound: c1cn2cc(-c3ccc4cn[nH]c4c3)nc(Nc3ccc(N4CCOCC4)cc3)c2n1 [entospletinib]
Procedure, shortened: as §1

Row | Target | log2 fold change (nilotinib) | log2 fold change [1] | log2 fold change (dasatinib) | log2 fold change [2] | log2 fold change [3] | log2 fold change (quisinostat) | log2 fold change (tipifarnib) | log2 fold change [4] | log2 fold change [5] | log2 fold change [6] | log2 fold change [7] | log2 fold change (vorinostat) | log2 fold change (silmitasertib) | log2 fold change [8] | log2 fold change (entospletinib)
1 | GHITM (UniProt Q9H3K2) | inactive: 0.017 | inactive: -0.004 | inactive: 0.008 | inactive: 0.005 | inactive: -0.011 | inactive: -0.01 | inactive: -0.007 | inactive: 0.015 | inactive: -0.017 | inactive: 0.002 | inactive: -0.028 | inactive: 0.145 | inactive: -0.021 | inactive: 0.011 | inactive: 0.005
2 | GGPS1 (UniProt O95749) | inactive: -0.014 | inactive: -0.005 | inactive: -0.028 | inactive: -0.017 | inactive: 0.006 | inactive: 0.05 | inactive: 0.017 | inactive: -0.007 | inactive: -0.024 | inactive: 0.002 | inactive: -0.041 | inactive: 0.113 | inactive: 0.019 | inactive: -0.016 | inactive: 0.007
3 | GON7 (UniProt Q9BXV9) | inactive: 0.004 | inactive: 0.087 | inactive: -0.007 | inactive: 0.083 | inactive: 0.015 | inactive: 0.049 | inactive: 0.051 | inactive: -0.109 | inactive: -0.01 | inactive: -0.031 | inactive: 0.025 | inactive: 0.101 | inactive: 0.001 | inactive: 0.019 | inactive: -0.159
4 | GPR108 (UniProt Q9NPR9) | inactive: 0.044 | inactive: 0.033 | inactive: -0.035 | inactive: 0.011 | inactive: -0.057 | inactive: -0.063 | inactive: -0.088 | inactive: -0.013 | inactive: 0.046 | inactive: -0.002 | inactive: -0.001 | inactive: -0.024 | inactive: 0.001 | inactive: -0.007 | inactive: -0.008
5 | GINS1 (UniProt Q14691) | inactive: 0.056 | inactive: -0.022 | inactive: 0.037 | inactive: 0 | inactive: 0.01 | inactive: -0.044 | inactive: 0.002 | inactive: -0.034 | inactive: 0.016 | inactive: 0.033 | inactive: 0.008 | inactive: 0.059 | inactive: -0.025 | inactive: -0.015 | inactive: -0.028
6 | GOLPH3 (UniProt Q9H4A6) | inactive: -0.008 | inactive: 0.008 | inactive: -0.071 | inactive: 0.044 | inactive: -0.013 | inactive: -0.065 | inactive: -0.039 | inactive: 0.012 | inactive: -0.023 | inactive: -0.02 | inactive: -0.06 | inactive: -0.06 | inactive: -0.001 | inactive: 0.023 | inactive: 0.026
7 | GMDS (UniProt O60547) | inactive: -0.023 | inactive: 0.05 | inactive: -0.043 | inactive: -0.03 | inactive: -0.013 | inactive: -0.041 | inactive: 0.029 | inactive: 0.038 | inactive: -0.005 | inactive: -0.029 | inactive: 0.027 | active: -0.309 | inactive: 0.041 | inactive: -0.016 | inactive: 0.032
8 | GLA (UniProt P06280) | inactive: 0.011 | inactive: -0.038 | inactive: 0.052 | inactive: 0.01 | inactive: 0.093 | inactive: 0.025 | inactive: 0.022 | inactive: -0.004 | inactive: 0.011 | inactive: -0.022 | inactive: 0.004 | inactive: 0.045 | inactive: 0.028 | inactive: 0 | inactive: 0.032
9 | GLYR1 (UniProt Q49A26) | inactive: 0.082 | inactive: 0.02 | inactive: -0.053 | inactive: 0.053 | inactive: -0.048 | inactive: -0.119 | inactive: -0.12 | inactive: -0.049 | inactive: -0.012 | inactive: 0.023 | inactive: -0.006 | inactive: -0.033 | inactive: -0.022 | inactive: -0.007 | inactive: -0.041
10 | GGA3 (UniProt Q9NZ52) | inactive: -0.061 | inactive: -0.008 | inactive: -0.015 | inactive: -0.055 | inactive: 0.016 | inactive: -0.046 | inactive: 0.015 | inactive: 0.058 | inactive: -0.003 | inactive: 0.022 | inactive: -0.062 | inactive: -0.08 | inactive: 0.007 | inactive: -0.008 | inactive: -0.005
11 | GLOD4 isoform 2 (UniProt Q9HC38) | inactive: -0.033 | inactive: 0 | inactive: 0.004 | inactive: 0.006 | inactive: 0 | inactive: 0.029 | inactive: 0.036 | inactive: -0.019 | inactive: 0.015 | inactive: 0.017 | inactive: 0.027 | inactive: 0.077 | inactive: 0.029 | inactive: -0.046 | inactive: -0.003
12 | GPS2 (UniProt Q13227) | inactive: -0.007 | inactive: -0.063 | inactive: -0.018 | inactive: -0.006 | inactive: 0.025 | inactive: 0.036 | inactive: -0.078 | inactive: 0.008 | inactive: -0.037 | inactive: 0.034 | inactive: 0.097 | inactive: -0.222 | inactive: 0.025 | inactive: -0.104 | inactive: -0.049
13 | GMFG (UniProt O60234) | inactive: 0.023 | inactive: -0.051 | inactive: 0.02 | inactive: -0.089 | inactive: 0.016 | inactive: 0.046 | inactive: 0.018 | inactive: -0.017 | inactive: -0.054 | inactive: 0.053 | inactive: -0.071 | inactive: 0.165 | inactive: 0.018 | inactive: -0.036 | inactive: 0.029
14 | GOT1 (UniProt P17174) | inactive: 0.038 | inactive: -0.015 | inactive: 0.012 | inactive: 0.004 | inactive: -0.003 | inactive: 0.025 | inactive: 0.025 | inactive: -0.03 | inactive: 0.003 | inactive: 0.025 | inactive: 0.027 | inactive: 0.136 | inactive: -0.017 | inactive: 0.008 | inactive: 0.015
15 | GNAS (UniProt Q5JWF2) | inactive: 0.016 | inactive: -0.035 | inactive: -0.001 | inactive: 0.002 | inactive: 0.028 | inactive: -0.012 | inactive: 0.021 | inactive: 0.038 | inactive: -0.01 | inactive: -0.007 | inactive: 0.026 | inactive: 0.046 | inactive: 0 | inactive: -0.015 | inactive: 0.012
16 | GNB3 (UniProt P16520) | inactive: -0.095 | inactive: 0.058 | inactive: -0.155 | inactive: -0.017 | inactive: -0.079 | inactive: -0.144 | inactive: -0.075 | inactive: 0.082 | inactive: 0.054 | inactive: -0.103 | inactive: 0.101 | inactive: 0.069 | inactive: -0.024 | inactive: -0.071 | inactive: 0.038
17 | GPAT4 (UniProt Q86UL3) | inactive: 0.028 | inactive: 0.048 | inactive: 0.004 | inactive: 0.004 | inactive: -0.015 | inactive: -0.012 | inactive: 0.019 | inactive: -0.02 | inactive: 0.014 | inactive: -0.016 | inactive: 0.02 | inactive: 0.123 | inactive: 0.031 | inactive: -0.007 | inactive: 0
18 | GINS2 (UniProt Q9Y248) | inactive: -0.005 | inactive: -0.025 | inactive: 0.009 | inactive: 0.004 | inactive: 0.01 | inactive: 0 | inactive: 0.03 | inactive: -0.022 | inactive: -0.057 | inactive: -0.019 | inactive: -0.204 | inactive: 0.06 | inactive: -0.013 | inactive: 0.03 | inactive: -0.041
19 | GOSR1 (UniProt O95249) | inactive: -0.02 | inactive: 0.016 | inactive: -0.043 | inactive: 0.038 | inactive: -0.032 | inactive: 0.02 | inactive: -0.028 | inactive: -0.009 | inactive: -0.022 | inactive: -0.014 | inactive: -0.037 | inactive: 0.007 | inactive: 0.01 | inactive: -0.035 | inactive: 0
20 | GPR89A (UniProt B7ZAQ6) | inactive: -0.049 | inactive: -0.043 | inactive: -0.128 | inactive: 0.018 | inactive: -0.101 | inactive: -0.098 | inactive: -0.074 | inactive: 0.054 | inactive: 0.033 | inactive: -0.088 | inactive: -0.025 | inactive: 0.086 | inactive: -0.047 | inactive: 0.047 | inactive: 0.081
21 | GID8 (UniProt Q9NWU2) | inactive: 0.021 | inactive: 0.015 | inactive: -0.032 | inactive: 0.055 | inactive: 0 | inactive: -0.06 | inactive: -0.025 | inactive: -0.001 | inactive: 0.008 | inactive: -0.037 | inactive: -0.041 | inactive: -0.055 | inactive: 0.007 | inactive: -0.019 | inactive: -0.069
